# Measurements taken from patent publication US20220135701A1 (Genentech, published 2022).
# Results are given in words; binding and its absence hold for the method and conditions named. Some binding calls cover weakened binding; strength is not graded here.
# T1: human MerTK (human, UniProt Q12866 26-499)
# T1 construct: also called HuMER
# T1 sequence: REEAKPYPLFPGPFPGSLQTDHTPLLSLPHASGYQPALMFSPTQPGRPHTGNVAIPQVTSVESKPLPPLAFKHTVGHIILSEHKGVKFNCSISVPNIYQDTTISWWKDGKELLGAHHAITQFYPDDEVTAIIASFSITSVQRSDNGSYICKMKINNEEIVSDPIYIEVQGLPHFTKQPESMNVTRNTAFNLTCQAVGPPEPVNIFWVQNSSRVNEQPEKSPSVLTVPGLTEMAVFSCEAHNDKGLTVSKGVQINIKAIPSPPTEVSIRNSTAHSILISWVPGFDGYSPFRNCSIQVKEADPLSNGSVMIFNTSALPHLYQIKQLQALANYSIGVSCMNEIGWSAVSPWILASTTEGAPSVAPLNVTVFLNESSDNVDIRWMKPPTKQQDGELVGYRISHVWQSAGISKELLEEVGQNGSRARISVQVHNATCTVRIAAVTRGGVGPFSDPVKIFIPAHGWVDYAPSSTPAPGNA
# T2: mouse MerTK (mouse, UniProt Q60805 23-496)
# T2 construct: also called MuMER
# T2 sequence (looked up): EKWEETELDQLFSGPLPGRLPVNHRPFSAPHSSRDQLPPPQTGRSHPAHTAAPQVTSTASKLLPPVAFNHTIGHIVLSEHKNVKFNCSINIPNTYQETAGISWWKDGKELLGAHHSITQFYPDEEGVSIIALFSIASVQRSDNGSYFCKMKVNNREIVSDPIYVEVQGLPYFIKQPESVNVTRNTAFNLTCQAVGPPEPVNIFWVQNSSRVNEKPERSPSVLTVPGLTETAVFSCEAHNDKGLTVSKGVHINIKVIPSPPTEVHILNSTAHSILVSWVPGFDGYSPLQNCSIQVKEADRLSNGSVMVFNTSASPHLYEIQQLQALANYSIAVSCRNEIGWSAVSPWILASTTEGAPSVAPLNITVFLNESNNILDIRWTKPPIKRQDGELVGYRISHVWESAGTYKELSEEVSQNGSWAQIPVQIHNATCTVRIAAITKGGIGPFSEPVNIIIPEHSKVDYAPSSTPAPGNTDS
# T3: rat MerTK (rat, UniProt P57097 23-496, limits assumed)
# T3 construct: Soluble analyte in SPR
# T3 sequence (looked up): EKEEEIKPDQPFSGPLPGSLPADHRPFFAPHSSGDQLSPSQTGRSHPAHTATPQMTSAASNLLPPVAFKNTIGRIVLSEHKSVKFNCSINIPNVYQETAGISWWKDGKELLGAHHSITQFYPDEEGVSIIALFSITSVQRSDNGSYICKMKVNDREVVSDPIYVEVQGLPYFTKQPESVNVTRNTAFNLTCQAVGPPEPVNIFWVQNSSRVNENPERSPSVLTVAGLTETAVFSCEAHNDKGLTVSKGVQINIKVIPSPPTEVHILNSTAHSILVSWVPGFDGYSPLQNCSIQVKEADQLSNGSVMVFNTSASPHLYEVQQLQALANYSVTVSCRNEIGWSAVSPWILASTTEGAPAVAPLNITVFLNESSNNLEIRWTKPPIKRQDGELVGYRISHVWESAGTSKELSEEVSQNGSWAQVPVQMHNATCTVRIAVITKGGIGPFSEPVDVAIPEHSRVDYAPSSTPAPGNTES
# Legend:
# human MerTK [1] = target: T1, human MerTK; assay: SPR BIAcore T200
# human MerTK [2] = target: T1, human MerTK; assay: epitope binning and domain binding SPR
# mouse MerTK = target: T2, mouse MerTK; assay: SPR BIAcore T200
# [3] = target: cynomolgus monkey MerTK (cynomolgus monkey); assay: SPR BIAcore T200
# rat MerTK = target: T3, rat MerTK; assay: SPR BIAcore T200
Binder,binding (human MerTK [1]),binding (human MerTK [2]),also measured
"h13B4.v1 (antibody, V domains shown, also called h13B4.V1 (Parent); 13B4 Humanized mAb V1) VH: EQQLVESGEGLVQPGGSLRLSCAVSGFSLSSYAMGWVRQAPGKGLEWIGIINSYGNTYYANWAKGRFTISRDSSKNTVYLQMGSLRAEDMAVYFCARDPGVSSNLWGPGTLVTVSS VL: DVQMTQSPSTLSASVGDRVTITCQASQNIYSGLAWYQQKPGKPPKLLIYGASKLASGVPSRFSGSGSGTEFTLTISSLQPDDFATYYCQATYYSSNSVAFGGGTKVEIK",binds,,
"Rbt10C3 (antibody, V domains shown, Recombinant rabbit monoclonal antibody, Expi293, protein A purified) VH: QSLEESGGRLVTPGTPLTLTCTASGFSLSGYTMGWVRQAPGKGLEYIGVISSGGTTYYTNWAKGRFTISKTSTTVDLKITSPTTEDTATYFCARVAFTAYGGGGFPTLHRLDLWGQGTLVTVSS VL: AQVLIQTASSVSAAVGGTVTISCQSSESVYNNDYLAWYQQKPGQPPKLLIYSASTLASGVPSRFKGSGSGTQFTLTISDLECDDAATYYCAGGYLGNNVFGGGTEVVVK",,binds,
"Rbt9E3.FN (antibody, V domains shown, Recombinant rabbit monoclonal antibody, Expi293, protein A purified) VH: QSVEESGGRLVTPGTPLTLTCTVSGFSLSSNAMSWVRQAPGKGLEWIGIISSSGSTYSASWAKGRFTISKTSTTMDLKITSPTTEDTATYFCARVGFFVGYGAYDYGIIHRLDLWGQGTLVTVSS VL: AAVLTQTPSPVSAAVGGTVSISCQSSKSIYNNNWLSWYQQKPGQPPKLLIYDASDLASGVPSRFEGSGSGTEFTLTISDLECDDAATYYCAGGYSGDSDYAFGGGTEVVVK",,binds,
"Rbt10F7 (antibody, V domains shown, Recombinant rabbit monoclonal antibody, Expi293, protein A purified) VH: QSVEESGGRLVTPGTPLTLTCTVSGFSLSGYAMSWVRQAPGKGLEYIGVISSSGSSYYPSWAKGRFTISKTSTTVDLQITSPTTEDTATYFCARVQFYVGYAVYGYGIIDRLDLWGQGTLVTVSS VL: AAVLTQTPSPVSATMGGTVSISCQSSKSVYNNNWLSWYQQKPGQPPKLLIYRASTLESGVPSRFKGSGSGTQFTLTISDVHCDDAATYFCAGGYSSSSSANAFGGGTEVVVK",,binds,
"Rbt22C4 (antibody, V domains shown, Recombinant rabbit monoclonal antibody, Expi293, protein A purified) VH: QSVEESGGRLVTPGTPLTLTCTVSGFSLSTYSMSWVRQAPGKGLEWLGIVSVAIDPVYATWARGRFTISRTSTTVNLKITSPTTEDTATYFCVRVAFSTNGIPHRLDLWGQGTLVTVSS VL: AQVLTQTASSVSAAVGGTVTISCQSSPSVYNHNWLSWYQQKPGQPPKLLIYEASKLASGVPSRFSGSGSGTQFTLTISDVQCDEAATYYCAGGFSSGSDSFAFGGGTEVVVT",,binds,
"Rbt8F4 (antibody, V domains shown, Recombinant rabbit monoclonal antibody, Expi293, protein A purified) VH: QSVQESGGRLVTPGTPLTLTCTVSGFSLINYPMSWVRQAPGKGLEWIGVISSTGGTNYASWAKGRFTISKTSTTVDLKITSPTTEDTATYFCARVDFLVYLGGAYIIWGLDLWGQGTLVTVSS VL: AAVLTQTPSPVSAAVGGTVTINCQSSPNIYSNYLSWFQQKPGQPPKILIYGASTLASGVPSRFKGSGSGTQFTLTISDVQCDDAATYYCAGGYSDSSEAYAFGGGTEVVVK",,binds,
"Rbt13D8 (antibody, V domains shown, Recombinant rabbit monoclonal antibody, Expi293, protein A purified) VH: QSLEESGGRLVTPGTPLTLTCTVSGFSFSSYSMGWVRQAPGKGPEYIGVISASGTTYYASWVNGRFTISKTSTTMDLKMTSPTAADTATYFCARAAFTAYNRGSCVIHRLDLWGQGTLVTVSS VL: AQVLTQTASSVSAAVGGTVTINCQASQSVYDSKWLAWYQQKPGQPPKLLIYSASTLASGVPSRFKGSGSGTQFTLTISDLECDDAATYYCAGAYTDNIVFGGGTEVVVK",,binds,
"Rbt13B4 (antibody, V domains shown, Recombinant rabbit monoclonal antibody, Expi293, protein A purified; also called Rb13B4) VH: QSVEESGGRLVTPGTPLTLTCTVSGFSLSSYAMGWVRQAPGKGLEWIGIINSYGNTYYANWAKGRFTISRTSTTVDLRMPSLTTEDTATYFCARDPGVSSNLWGPGTLVTVSS VL: DVVMTQTPASVSEPVGGTVTIKCQASQNIYSGLAWYQQKPGQPPKLLIYGASKLASGVSSRFKGSGSGTEFTLTISDLECADAATYYCQATYYSSNSVAFGGGTEVVVK",binds,binds,
"Rbt12H4 (antibody, V domains shown, Recombinant rabbit monoclonal antibody, Expi293, protein A purified) VH: QSVEESGGRLVTPGTPLTVTCTVSGFSLSVYGMGWVRQAPGKGLEYIGFINNVGNTYYASWAKGRFTISKTSTTVDLKITSPTTEDTATYFCAKGGGGDWGYFNIWGPGTLVTVSL VL: DVVMTQTPASVEAAVGGTVTIKCQASQSIGNALAWYQQKPGQRPKLLIYAASNLASGVPSRFAGSGSGTQFTLTISDLECADAATYYCQTYYAINRYGGAFGGGTEVVVK",,binds,
"Rbt18G7 (antibody, V domains shown, Recombinant rabbit monoclonal antibody, Expi293, protein A purified) VH: QSLEESGGRLVTPGTPLTLTCTVSGIDLSSYALGWVRQAPGKGLEYIGIISSTGTTYYATWAKGRFTISKTSSTTVDLKITGPTTEDTATYFCARGAYAGYVAFGPYYFHIWGPGTLVTISL VL: DIVMTQTPASVEAAVGGTVTIKCQASQSISNFLAWYQQKPGQPPKVLIYAASHLASGVPSRFKGSGSGTQFTLTISDLECADAATYYCQSYFYSSTSIYNAFGGGTEVVVR",,binds,
"Rbt11G11 (antibody, V domains shown, Recombinant rabbit monoclonal antibody, Expi293, protein A purified) VH: QELVESGGGLVQAGESLKLSCKASGIDFSSYGISWVRQAPGKGLEWIAYIYPGFGITNYAHSVKGRFTISSDNAQNTVFLQMPSLTASDTATYFCARDLDYTGGVVGYAYVTYYFTLWGPGTLVTVSS VL: DPVLTQTPSSVEAAVGGTVTIKCQASESISSRLAWYQQKPGQPPKLLIYSASTLASGVSSRFKGSGSGTEFTLTISDLECADAATYYCQTYYGGSTTGWYVFGGGTEVVVK",,binds,
"Rbt14C9 (antibody, V domains shown, Recombinant rabbit monoclonal antibody, Expi293, protein A purified) VH: QSVEESGGRLVTPGTPLTLTCTVSGIDLSANTMNWVRQAPGKGLEWIGIFTATGSTYYATWVNGRFTISKTSTTVDLKITSPTTEDTATYFCARSGSGSSSGAFNIWGPGTLVTVSL VL: DPVLTQTPASVSEPVGGTVTIKCQASQSISSSLAWYQQKPGQPPKLLIYAASILASEISSRFKGSRSGTEFTLTISDLECADAATYYCQCTSYGSLFLGPFGGGTEVVVK",,,binding (mouse MerTK): binds
"h10F7.v1 (antibody, V domains shown, also called h10F7.V1 (Parent); 10F7 Humanized mAb V1) VH: EQQLVESGGGLVQPGGSLRLSCAVSGFSLSGYAMSWVRQAPGKGLEYIGVISSSGSSYYPSWAKGRFTISKDSSKNTVYLQMGSLRAEDMAVYFCARVQFYVGYAVYGYGIIDRLDLWGQGTLVTVSS VL: DAVLTQSPDSLAVSLGERATINCQSSKSVYNNNWLSWYQQKPGQPPKLLIYRASTLESGVPDRFSGSGSGTDFTLTISSLQAEDVAVYFCAGGYSSSSSANAFGGGTKVEIK",binds,,binding (mouse MerTK): binds; binding [3]: binds; binding (rat MerTK): binds
"h10F7.v16 (antibody, V domains shown, Humanized, human IgG1; also called 10F7 Fully Humanized; 10F7 Humanized polished mAb) VH: EVQLVESGGGLVQPGGSLRLSCAVSGFSLSGYAMSWVRQAPGKGLEYIGVISSSGSSYYPSWAKGRFTISKDNSKNTLYLQMGSLRAEDMAVYYCARVQFYVGYAVYGYGIIDRLDLWGQGTLVTVSS VL: DIVLTQSPDSLAVSLGERATINCQSSKSVYNNNWLSWYQQKPGQPPKLLIYRASTLESGVPDRFSGSGSGTDFTLTISSLQAEDVAVYFCAGGYSSSSSANAFGGGTKVEIK",binds,,binding (mouse MerTK): binds; binding [3]: binds; binding (rat MerTK): binds
"h10C3.v1 (antibody, V domains shown, also called h10C3.V1 (Parent); 10C3 Humanized mAb V1) VH: EQQLVESGGGLVQPGGSLRLSCAASGFSLSGYTMGWVRQAPGKGLEYIGVISSGGTTYYTNWAKGRFTISKDSSKNTVYLQMGSLRAEDMAVYFCARVAFTAYGGGGFPTLHRLDLWGQGTLVTVSS VL: DQVLTQSPDSLAVSLGERATINCQSSESVYNNDYLAWYQQKPGQPPKLLIYSASTLASGVPDRFSGSGSGTDFTLTISSLQAEDVAVYYCAGGYLGNNVFGGGTKVEIK",binds,,binding (mouse MerTK): binds; binding [3]: binds; binding (rat MerTK): binds
